Assay results published in patent US20150166987.
For some assays here: Protein sequences can lack the tags named with them. Construct, isoform or probe ends are uncertain for at least one entry.

What was measured:
Experiment in all cases: pull-down
NELF-E (Drosophila) = target: T1, NELF-E (Drosophila) (UniProt P92204); conditions: purified recombinant protein
T1 sequence (looked up, limits assumed): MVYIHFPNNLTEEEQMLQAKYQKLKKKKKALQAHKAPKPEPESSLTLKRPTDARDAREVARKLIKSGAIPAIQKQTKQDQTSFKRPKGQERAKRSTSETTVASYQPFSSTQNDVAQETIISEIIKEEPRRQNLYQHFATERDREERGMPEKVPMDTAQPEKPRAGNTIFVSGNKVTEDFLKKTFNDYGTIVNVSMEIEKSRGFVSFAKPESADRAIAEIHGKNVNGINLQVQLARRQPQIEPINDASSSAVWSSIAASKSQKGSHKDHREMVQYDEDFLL

UBLCP1 = target: T2, UBLCP1 (UniProt Q8WVY7); conditions: purified recombinant protein
T2 sequence (looked up, limits assumed): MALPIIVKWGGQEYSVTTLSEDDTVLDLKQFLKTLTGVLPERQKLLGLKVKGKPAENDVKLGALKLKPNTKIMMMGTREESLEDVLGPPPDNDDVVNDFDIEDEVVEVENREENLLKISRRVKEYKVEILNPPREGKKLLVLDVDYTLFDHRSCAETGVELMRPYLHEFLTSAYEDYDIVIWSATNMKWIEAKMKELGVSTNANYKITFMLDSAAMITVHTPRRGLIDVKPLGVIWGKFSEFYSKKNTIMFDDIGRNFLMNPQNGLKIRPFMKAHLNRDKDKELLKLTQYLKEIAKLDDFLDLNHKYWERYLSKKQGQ

[1] = target: T3, hHSF1 (heat shock factor 1) (UniProt Q00613); conditions: purified recombinant protein, protein details: N-terminal GST, immobilised on glutathione-agarose
T3 sequence (looked up, limits assumed): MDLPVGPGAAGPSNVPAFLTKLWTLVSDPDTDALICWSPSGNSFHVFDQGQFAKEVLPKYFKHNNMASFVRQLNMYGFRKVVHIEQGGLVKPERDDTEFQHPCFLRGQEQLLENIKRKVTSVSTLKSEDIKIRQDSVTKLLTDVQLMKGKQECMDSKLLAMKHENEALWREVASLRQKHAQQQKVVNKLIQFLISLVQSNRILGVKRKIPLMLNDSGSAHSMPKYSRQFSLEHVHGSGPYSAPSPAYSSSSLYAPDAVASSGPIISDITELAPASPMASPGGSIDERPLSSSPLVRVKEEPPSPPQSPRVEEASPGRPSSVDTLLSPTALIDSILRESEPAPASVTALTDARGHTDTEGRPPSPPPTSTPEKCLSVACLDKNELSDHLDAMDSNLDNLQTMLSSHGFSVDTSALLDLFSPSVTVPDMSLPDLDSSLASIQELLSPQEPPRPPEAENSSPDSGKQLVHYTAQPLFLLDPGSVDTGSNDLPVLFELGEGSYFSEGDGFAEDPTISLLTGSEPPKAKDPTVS

GFP = GFP (UniProt P42212); conditions: purified recombinant protein
[2] = average over all non-GFP targets, counted as no binding
[3] = average over all non-hHSF1 targets, counted as no binding
[4] = average over all non-NELF-E targets, counted as no binding
[5] = average over Ni-NTA-containing columns, attributed to Ni-NTA affinity
[6] = average over non-Ni-NTA columns, background binding
[7] = average over Ni-NTA-containing columns, attributed to resin/device background

AGCUUCUGGACUGCGAUGGGAGCACGAAACGUCGUGGCGCAAUUGGGUGGGGAAAGUCCUUAAAAGAGGGCCACCACAGAAGCU [GFPapt (AP3-1)]
binding signal (fold enrichment over N70 library) (NELF-E (Drosophila); [2]): 0.6
binding signal (fold enrichment over N70 library) (UBLCP1; [2]): 0.6
binding signal (fold enrichment over N70 library) [1, 2]: 0.6

GGGAAUGGAUCCACAUCUACGAAUUCAAUCAAGUCCCCAGACUCAGCAACACUGGACAGCGAUAUGCAGAUAACCAAGACCAAUUCACUCCAGUUCACUGCAGACUUGACGAAGCUU [HSFapt (hHSF2-R5-2)]
binding signal (fold enrichment over N70 library) (GFP; [3]): 2
binding signal (fold enrichment over N70 library) (NELF-E (Drosophila); [3]): 2
binding signal (fold enrichment over N70 library) (UBLCP1; [3]): 2

GGGAAUGGAUCCACAUCUACGAAUUCCCAACGACUGCCGAGCGAGAUUACGCUUGAGCGCCCCACUGAGGAUGCCCACGGGCGAUUGGGGCACGGCUUCACUGCAGACUUGACGAAGCUU [NELFapt (Napt1)]
binding signal (fold enrichment over N70 library) (GFP; [4]): 1.6
binding signal (fold enrichment over N70 library) (UBLCP1; [4]): 1.6
binding signal (fold enrichment over N70 library) [1, 4]: 1.6

GGGAAUGGAUCCACAUCUACGAAUUCCGAAGCUCGUGACGGUACCUCCUAAAAUGUCCAUGGGGAAGGGAGGGAAUGGGAAGGACAAUCGGACACCGUUCACUGCAGACUUGACGAAGCUU [BBS2]
binding signal (fold enrichment over N70 library) (GFP; average over Ni-NTA-containing columns, attributed to Ni-NTA affinity, blank Ni-NTA almost 1000-fold): 311
binding signal (fold enrichment over N70 library) (NELF-E (Drosophila); [5]): 311
binding signal (fold enrichment over N70 library) (UBLCP1; [5]): 311
binding signal (fold enrichment over N70 library) [1, 6]: 13

GGGAAUGGAUCCACAUCUACGAAUUCCGCAGGGCUAGCCGCAUGCUCAGGCCUGGCGGGUAGGGAGUUAGGGUAGGGAGACCAGGAGAGCUGGCUUCACUGCAGACUUGACGAAGCUU [BBS1]
binding signal (fold enrichment over N70 library) (GFP; [7]): 5.1
binding signal (fold enrichment over N70 library) (NELF-E (Drosophila); [7]): 5.1
binding signal (fold enrichment over N70 library) (UBLCP1; [7]): 5.1
binding signal (fold enrichment over N70 library) [1, 6]: 1.7
